The values that follow come from ChEMBL document CHEMBL5104131, “Pyrimidine-conjugated fluoroquinolones as new potential broad-spectrum antibacterial agents” (Bioorg Med Chem Lett, 2022).

Values after ≈ are worked out from the molar mass of the structure shown.

For the experiment, the system named is Candida parapsilosis. The experiment in a line: Antifungal activity against Candida parapsilosis ATCC 22019 assessed as inhibition of fungal growth. The following applies: Lodderomyces parapsilosis. The format is functional.

As for `OC(Cn1cncn1)(Cn1cncn1)c1ccc(F)cc1F` [FLUCONAZOLE], the MIC (as a rule, the lowest concentration that inhibits growth of the organism) came out at 4 µg/mL (≈ 13.1 µM).
